Assay results as given in the supplement of paper PMC10849652.
This is one part of the list.

Sequences of proteins named here, by UniProt entry; tags and fusion partners are left off. A change or cut given only in a name is not applied to a line headed by its entry.
UniProt Q96PV6, whole entry, looked up: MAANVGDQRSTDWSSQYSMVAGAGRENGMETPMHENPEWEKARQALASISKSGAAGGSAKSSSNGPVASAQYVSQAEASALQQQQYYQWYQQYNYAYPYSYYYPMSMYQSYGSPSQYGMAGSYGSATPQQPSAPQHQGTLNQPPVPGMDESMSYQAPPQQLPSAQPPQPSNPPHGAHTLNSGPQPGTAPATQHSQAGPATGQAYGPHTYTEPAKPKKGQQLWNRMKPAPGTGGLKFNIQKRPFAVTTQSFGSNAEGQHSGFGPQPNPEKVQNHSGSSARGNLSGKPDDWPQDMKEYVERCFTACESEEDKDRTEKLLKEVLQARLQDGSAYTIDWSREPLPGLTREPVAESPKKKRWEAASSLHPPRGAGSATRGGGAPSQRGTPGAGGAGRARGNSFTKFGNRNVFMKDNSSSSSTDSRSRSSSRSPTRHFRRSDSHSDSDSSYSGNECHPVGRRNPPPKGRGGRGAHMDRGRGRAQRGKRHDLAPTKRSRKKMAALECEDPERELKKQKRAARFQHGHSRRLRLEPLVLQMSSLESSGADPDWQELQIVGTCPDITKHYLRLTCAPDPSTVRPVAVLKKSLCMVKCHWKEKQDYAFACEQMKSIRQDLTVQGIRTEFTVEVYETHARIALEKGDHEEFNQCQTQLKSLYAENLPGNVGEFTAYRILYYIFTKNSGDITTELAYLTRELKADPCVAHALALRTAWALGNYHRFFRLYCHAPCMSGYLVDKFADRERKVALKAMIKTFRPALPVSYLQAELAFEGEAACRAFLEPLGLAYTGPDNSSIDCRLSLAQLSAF
UniProt P07195, whole entry, looked up: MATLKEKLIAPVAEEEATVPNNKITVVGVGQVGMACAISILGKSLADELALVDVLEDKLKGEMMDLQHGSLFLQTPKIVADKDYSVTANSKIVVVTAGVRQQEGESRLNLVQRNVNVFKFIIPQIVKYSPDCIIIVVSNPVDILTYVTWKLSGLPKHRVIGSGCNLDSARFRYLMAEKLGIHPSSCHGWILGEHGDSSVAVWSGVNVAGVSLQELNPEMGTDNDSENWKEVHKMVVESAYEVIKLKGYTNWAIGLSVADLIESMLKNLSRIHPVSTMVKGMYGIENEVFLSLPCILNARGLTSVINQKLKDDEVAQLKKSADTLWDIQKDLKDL
UniProt Q12907: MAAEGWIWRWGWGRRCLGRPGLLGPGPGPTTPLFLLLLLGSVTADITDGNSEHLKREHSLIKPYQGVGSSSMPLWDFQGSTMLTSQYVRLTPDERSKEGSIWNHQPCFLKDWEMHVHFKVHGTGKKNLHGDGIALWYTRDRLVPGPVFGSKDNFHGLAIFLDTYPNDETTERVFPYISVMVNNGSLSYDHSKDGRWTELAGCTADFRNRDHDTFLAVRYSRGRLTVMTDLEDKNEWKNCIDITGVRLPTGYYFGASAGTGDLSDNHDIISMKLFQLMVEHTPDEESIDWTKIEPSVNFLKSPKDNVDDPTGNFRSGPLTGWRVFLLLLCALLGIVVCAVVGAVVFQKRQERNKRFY
UniProt Q9UIQ6, whole entry, looked up: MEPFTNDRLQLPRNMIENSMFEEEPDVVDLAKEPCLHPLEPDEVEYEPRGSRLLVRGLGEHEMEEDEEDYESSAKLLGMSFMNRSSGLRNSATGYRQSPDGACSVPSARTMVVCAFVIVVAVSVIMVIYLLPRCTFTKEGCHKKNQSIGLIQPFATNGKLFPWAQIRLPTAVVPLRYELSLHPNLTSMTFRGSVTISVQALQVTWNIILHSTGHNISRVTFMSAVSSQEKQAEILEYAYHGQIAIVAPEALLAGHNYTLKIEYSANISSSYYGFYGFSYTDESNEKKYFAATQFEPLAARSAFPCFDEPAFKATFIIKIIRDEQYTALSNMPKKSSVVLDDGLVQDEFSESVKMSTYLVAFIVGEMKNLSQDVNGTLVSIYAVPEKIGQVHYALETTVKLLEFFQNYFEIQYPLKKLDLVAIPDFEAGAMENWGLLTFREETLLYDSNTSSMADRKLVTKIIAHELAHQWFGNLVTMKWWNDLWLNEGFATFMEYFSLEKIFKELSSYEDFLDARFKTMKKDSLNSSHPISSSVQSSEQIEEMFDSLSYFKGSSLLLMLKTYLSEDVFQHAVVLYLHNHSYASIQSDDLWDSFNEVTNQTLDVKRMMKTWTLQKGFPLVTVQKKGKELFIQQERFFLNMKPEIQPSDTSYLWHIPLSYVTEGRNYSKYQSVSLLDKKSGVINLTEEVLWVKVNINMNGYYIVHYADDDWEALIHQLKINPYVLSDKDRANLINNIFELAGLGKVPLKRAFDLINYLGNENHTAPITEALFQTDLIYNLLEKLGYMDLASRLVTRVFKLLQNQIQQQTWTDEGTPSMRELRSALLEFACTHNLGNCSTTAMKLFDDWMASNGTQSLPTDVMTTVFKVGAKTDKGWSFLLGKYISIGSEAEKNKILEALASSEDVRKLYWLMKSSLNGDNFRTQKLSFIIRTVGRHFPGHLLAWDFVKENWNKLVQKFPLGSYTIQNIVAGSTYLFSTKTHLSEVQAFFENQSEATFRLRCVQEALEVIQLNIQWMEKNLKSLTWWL
UniProt Q15334: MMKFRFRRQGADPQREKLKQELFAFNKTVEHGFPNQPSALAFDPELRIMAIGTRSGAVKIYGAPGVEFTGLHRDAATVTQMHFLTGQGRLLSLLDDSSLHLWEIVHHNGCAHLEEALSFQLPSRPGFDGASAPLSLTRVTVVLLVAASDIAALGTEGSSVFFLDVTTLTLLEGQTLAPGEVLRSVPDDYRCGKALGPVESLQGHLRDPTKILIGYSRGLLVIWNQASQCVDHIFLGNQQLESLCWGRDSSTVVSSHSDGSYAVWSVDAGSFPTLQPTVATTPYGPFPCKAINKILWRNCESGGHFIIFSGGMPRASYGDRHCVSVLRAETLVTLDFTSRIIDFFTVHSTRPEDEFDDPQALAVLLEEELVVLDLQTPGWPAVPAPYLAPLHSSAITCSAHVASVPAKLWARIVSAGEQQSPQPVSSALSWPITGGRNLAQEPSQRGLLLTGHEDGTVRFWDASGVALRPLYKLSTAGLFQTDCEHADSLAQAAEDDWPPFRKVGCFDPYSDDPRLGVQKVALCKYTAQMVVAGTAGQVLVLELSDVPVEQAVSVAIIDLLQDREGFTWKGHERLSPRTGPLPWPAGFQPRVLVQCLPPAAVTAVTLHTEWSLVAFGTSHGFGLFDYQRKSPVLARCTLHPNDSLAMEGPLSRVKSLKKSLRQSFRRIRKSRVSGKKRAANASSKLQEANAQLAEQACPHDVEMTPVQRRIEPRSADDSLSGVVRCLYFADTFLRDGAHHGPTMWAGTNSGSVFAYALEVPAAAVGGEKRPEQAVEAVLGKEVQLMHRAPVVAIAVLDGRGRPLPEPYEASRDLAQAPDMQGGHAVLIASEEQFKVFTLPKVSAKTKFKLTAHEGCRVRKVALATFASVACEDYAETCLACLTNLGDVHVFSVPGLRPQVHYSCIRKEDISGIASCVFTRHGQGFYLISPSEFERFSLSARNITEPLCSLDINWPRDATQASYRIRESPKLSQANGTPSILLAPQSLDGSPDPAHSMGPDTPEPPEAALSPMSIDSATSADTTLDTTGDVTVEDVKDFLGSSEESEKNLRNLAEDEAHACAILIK
UniProt Q8IWT6: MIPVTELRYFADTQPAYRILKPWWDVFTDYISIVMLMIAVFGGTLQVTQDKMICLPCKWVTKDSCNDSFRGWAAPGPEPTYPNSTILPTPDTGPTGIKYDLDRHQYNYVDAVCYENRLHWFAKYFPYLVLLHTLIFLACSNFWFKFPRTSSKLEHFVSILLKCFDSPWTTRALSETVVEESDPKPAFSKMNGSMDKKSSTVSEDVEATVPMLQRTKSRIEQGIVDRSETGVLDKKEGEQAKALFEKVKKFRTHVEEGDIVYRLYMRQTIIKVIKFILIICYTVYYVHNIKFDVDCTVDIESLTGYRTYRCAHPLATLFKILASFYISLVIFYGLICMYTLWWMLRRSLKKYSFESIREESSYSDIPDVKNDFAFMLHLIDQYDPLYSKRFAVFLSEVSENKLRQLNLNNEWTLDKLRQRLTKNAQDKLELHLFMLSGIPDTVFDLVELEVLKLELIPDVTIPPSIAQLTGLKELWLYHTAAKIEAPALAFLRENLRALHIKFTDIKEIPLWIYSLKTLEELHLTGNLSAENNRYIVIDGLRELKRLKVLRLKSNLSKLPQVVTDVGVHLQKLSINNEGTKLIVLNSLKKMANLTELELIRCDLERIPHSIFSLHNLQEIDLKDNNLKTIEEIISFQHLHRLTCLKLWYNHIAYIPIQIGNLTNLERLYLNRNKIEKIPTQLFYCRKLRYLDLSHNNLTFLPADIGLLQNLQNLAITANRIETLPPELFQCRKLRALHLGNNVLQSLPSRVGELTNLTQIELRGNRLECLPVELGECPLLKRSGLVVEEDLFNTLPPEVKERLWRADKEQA
UniProt Q6UWP7: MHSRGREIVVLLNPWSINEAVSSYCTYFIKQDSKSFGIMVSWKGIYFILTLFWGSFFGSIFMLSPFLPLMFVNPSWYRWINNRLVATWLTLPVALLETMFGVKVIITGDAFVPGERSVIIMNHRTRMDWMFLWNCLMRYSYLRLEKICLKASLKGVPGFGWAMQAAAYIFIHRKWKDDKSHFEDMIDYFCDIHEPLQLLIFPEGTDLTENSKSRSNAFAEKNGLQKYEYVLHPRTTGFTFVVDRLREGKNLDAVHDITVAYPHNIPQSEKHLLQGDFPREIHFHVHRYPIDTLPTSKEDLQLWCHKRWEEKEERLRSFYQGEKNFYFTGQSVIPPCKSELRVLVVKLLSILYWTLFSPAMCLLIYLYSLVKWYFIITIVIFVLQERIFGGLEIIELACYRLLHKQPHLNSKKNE
UniProt Q9Y4W2: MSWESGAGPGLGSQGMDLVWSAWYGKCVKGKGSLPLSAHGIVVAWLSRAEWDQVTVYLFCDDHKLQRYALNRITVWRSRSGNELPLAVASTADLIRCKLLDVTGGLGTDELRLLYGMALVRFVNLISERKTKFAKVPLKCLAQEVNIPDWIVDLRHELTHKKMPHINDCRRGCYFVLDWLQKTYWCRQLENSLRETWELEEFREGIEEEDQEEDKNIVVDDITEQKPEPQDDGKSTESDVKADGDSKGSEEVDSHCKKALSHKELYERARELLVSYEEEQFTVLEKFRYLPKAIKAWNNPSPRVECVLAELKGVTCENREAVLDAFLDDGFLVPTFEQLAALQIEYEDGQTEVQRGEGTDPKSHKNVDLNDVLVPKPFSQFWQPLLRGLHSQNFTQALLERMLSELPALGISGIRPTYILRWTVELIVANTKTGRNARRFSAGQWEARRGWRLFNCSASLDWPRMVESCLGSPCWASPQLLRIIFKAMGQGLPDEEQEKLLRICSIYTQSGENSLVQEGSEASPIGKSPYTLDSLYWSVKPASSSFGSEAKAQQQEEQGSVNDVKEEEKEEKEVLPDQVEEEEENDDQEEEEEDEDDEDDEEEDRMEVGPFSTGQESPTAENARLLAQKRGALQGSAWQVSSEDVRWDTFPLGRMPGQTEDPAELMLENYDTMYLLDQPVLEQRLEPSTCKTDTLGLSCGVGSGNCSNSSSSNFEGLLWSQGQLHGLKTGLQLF
UniProt O75427: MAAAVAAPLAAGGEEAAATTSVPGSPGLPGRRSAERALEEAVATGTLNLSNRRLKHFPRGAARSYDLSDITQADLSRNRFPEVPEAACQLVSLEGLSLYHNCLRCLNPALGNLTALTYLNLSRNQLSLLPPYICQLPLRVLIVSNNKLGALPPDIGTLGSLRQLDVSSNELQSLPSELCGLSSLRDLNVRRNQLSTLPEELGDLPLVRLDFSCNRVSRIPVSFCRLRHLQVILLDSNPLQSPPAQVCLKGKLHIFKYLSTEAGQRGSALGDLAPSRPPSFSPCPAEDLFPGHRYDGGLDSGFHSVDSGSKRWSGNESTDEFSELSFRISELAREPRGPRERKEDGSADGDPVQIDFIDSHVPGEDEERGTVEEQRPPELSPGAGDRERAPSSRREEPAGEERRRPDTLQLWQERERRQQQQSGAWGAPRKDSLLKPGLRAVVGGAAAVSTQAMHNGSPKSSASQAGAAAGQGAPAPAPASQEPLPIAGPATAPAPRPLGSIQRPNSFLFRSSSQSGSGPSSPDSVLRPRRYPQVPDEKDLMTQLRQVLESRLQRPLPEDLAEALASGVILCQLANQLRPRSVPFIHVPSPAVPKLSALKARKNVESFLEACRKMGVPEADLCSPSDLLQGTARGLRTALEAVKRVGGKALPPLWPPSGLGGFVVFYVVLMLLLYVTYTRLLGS
UniProt P48059, whole entry, looked up: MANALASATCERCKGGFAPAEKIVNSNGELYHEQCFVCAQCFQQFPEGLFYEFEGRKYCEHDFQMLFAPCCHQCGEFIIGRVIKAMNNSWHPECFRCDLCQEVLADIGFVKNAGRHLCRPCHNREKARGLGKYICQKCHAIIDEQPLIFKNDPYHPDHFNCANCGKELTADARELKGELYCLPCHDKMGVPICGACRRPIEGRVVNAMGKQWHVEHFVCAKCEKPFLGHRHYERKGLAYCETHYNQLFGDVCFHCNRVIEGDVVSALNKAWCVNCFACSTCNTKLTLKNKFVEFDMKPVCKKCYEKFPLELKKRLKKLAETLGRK

Assays:
Experiment in all cases: log2 fold change, soluble protein after heating vs DMSO (PISA); higher = thermal stabilisation; K562 lysate, 10 uM; active = over 0.2 and 3.5 SD of the protein, either way, in both replicates (recomputed)
vemurafenib = compound: CCCS(=O)(=O)Nc1ccc(F)c(C(=O)c2c[nH]c3ncc(-c4ccc(Cl)cc4)cc23)c1F [vemurafenib]
Summary of the method: (§1)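 Values give the log-two fold change in thermal stability against solvent controls, from duplicates. Crude K562 extract at 1 mg/mL protein, made by dounce homogenisation in PBS pH 7.4 with 1 mM MgCl2, was treated with 10 μM compound for 30 min. After 3 min heating across 48°C-58°C, aliquots were pooled, adjusted to 0.5% NP-40 at 4°C and centrifuged at 21,000xg for 90 min. The supernatant was measured by TMTpro 16plex LC-MS/MS with channel sums equalised.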

[1] = compound: CCCS(=O)(=O)Nc1ccc(F)c(C(=O)c2c[nH]c3ncc(Cl)cc23)c1F
Summary of the method: as §1

barasertib = compound: CCN(CCCOc1ccc2c(Nc3cc(CC(=O)Nc4cccc(F)c4)[nH]n3)ncnc2c1)CCOP(=O)(O)O [barasertib]
Summary of the method: as §1

[2] = compound: CC[C@@H]1C(=O)N(C)c2cnc(Nc3ccc(C(=O)NC4CCN(C)CC4)cc3OC)nc2N1C1CCCC1
Summary of the method: as §1

volasertib = compound: CC[C@@H]1C(=O)N(C)c2cnc(Nc3ccc(C(=O)N[C@H]4CC[C@H](N5CCN(CC6CC6)CC5)CC4)cc3OC)nc2N1C(C)C [volasertib]
Summary of the method: as §1

[3] = compound: CCn1c(C(=O)N(C2CC2)C2CC2)cc2c3c(ncn3C)c(Nc3cc(C)n(C)n3)nc21
Summary of the method: as §1

[4] = compound: CCn1cc(-c2ccnc3[nH]c(-c4cccc(CN(C)C)c4)cc23)c(-c2ccc(NC(=O)N(C)C)cc2)n1
Summary of the method: as §1

[5] = compound: CN1CCC(CNc2ccc3ncc(-c4cccc(OC(F)(F)F)c4)n3n2)CC1
Summary of the method: as §1

saracatinib = compound: CN1CCN(CCOc2cc(OC3CCOCC3)c3c(Nc4c(Cl)ccc5c4OCO5)ncnc3c2)CC1 [saracatinib]
Summary of the method: as §1

sotrastaurin = compound: CN1CCN(c2nc(C3=C(c4c[nH]c5ccccc45)C(=O)NC3=O)c3ccccc3n2)CC1 [sotrastaurin]
Summary of the method: as §1

alvocidib = compound: CN1CC[C@H](c2c(O)cc(O)c3c(=O)cc(-c4ccccc4Cl)oc23)[C@H](O)C1 [alvocidib]
Summary of the method: as §1

Tubastatin A = compound: CN1CCc2c(c3ccccc3n2Cc2ccc(C(=O)NO)cc2)C1 [Tubastatin A]
Summary of the method: as §1

[6] = compound: CNC(=O)C1=CC=CC=C1NC2=NC(=NC=C2Cl)NC3=C(C=C(C=C3)N4CCOCC4)OC
Summary of the method: as §1

defactinib = compound: CNC(=O)c1ccc(Nc2ncc(C(F)(F)F)c(NCc3nccnc3N(C)S(C)(=O)=O)n2)cc1 [defactinib]
Summary of the method: as §1

[7] = compound: CNc1nc(-c2ccc3c(N)n[nH]c3c2)cc(N2C[C@@H](C(=O)NC3CCCCC3)CC[C@H]2C)n1
Summary of the method: as §1

encorafenib = compound: COC(=O)N[C@@H](C)CNc1nccc(-c2cn(C(C)C)nc2-c2cc(Cl)cc(NS(C)(=O)=O)c2F)n1 [encorafenib]
Summary of the method: as §1

[8] = compound: COC(=O)[C@H](CCSC)NC(=O)C1=C(C=C(C=C1)NC[C@H](CS)N)C2=CC=CC=C2
Summary of the method: as §1

alisertib = compound: COc1cc(Nc2ncc3c(n2)-c2ccc(Cl)cc2C(c2c(F)cccc2OC)=NC3)ccc1C(=O)O [alisertib]
Summary of the method: as §1

[9] = compound: COc1cc2nc(-c3cc(F)ccc3O)nc(N[C@@H]3CNC[C@H]3C(C)(C)O)c2cc1OC
Summary of the method: as §1

gefitinib = compound: COc1cc2ncnc(Nc3ccc(F)c(Cl)c3)c2cc1OCCCN1CCOCC1 [gefitinib]
Summary of the method: as §1

Measured: log2 fold change

LSS (UniProt P48449)
active: volasertib 0.434
inactive: vemurafenib 0.016 | [1] -0.009 | barasertib 0.044 | [2] -0.078 | [3] -0.009 | [4] -0.09 | [5] 0.123 | saracatinib -0.043 | sotrastaurin 0 | alvocidib -0.011 | Tubastatin A 0.021 | [6] -0.03 | defactinib -0.026 | [7] 0.021 | encorafenib 0.031 | [8] 0.02 | alisertib 0.011 | [9] 0.032 | gefitinib 0.055

LENG8 (UniProt Q96PV6)
inactive: vemurafenib 0.022 | [1] -0.062 | barasertib 0.023 | [2] 0.07 | volasertib -0.124 | [3] 0 | [4] 0.034 | [5] 0.019 | saracatinib -0.365 | sotrastaurin 0.041 | alvocidib -0.058 | Tubastatin A 0.025 | [6] -0.089 | defactinib -0.14 | [7] 0.205 | encorafenib 0.034 | [8] 0.011 | alisertib -0.052 | [9] 0.028 | gefitinib 0.02

LDHB (UniProt P07195)
inactive: vemurafenib 0.007 | [1] -0.009 | barasertib -0.033 | [2] 0.024 | volasertib 0.038 | [3] -0.036 | [4] -0.007 | [5] 0.047 | saracatinib -0.006 | sotrastaurin 0.002 | alvocidib 0.021 | Tubastatin A 0.04 | [6] 0.002 | defactinib -0.027 | [7] 0.025 | encorafenib -0.05 | [8] -0.04 | alisertib 0.019 | [9] 0.015 | gefitinib -0.03

LMAN2 (UniProt Q12907)
inactive: vemurafenib -0.017 | [1] -0.013 | barasertib 0.011 | [2] 0.053 | volasertib 0.002 | [3] -0.016 | [4] -0.169 | [5] 0.054 | saracatinib -0.036 | sotrastaurin 0.002 | alvocidib -0.02 | Tubastatin A 0.061 | [6] 0 | defactinib 0.015 | [7] 0.008 | encorafenib 0.028 | [8] -0.035 | alisertib 0.002 | [9] -0.003 | gefitinib 0.008

LNPEP (UniProt Q9UIQ6)
inactive: vemurafenib -0.018 | [1] 0.013 | barasertib -0.004 | [2] 0.021 | volasertib 0.024 | [3] -0.023 | [4] -0.082 | [5] 0.049 | saracatinib 0.025 | sotrastaurin 0.029 | alvocidib -0.013 | Tubastatin A 0.02 | [6] 0.019 | defactinib 0.028 | [7] 0.006 | encorafenib 0.035 | [8] -0.101 | alisertib -0.007 | [9] 0.013 | gefitinib 0.013

LLGL1 (UniProt Q15334)
inactive: vemurafenib 0.06 | [1] -0.052 | barasertib -0.014 | [2] -0.057 | volasertib 0.02 | [3] -0.038 | [4] 0.033 | [5] -0.008 | saracatinib -0.097 | sotrastaurin 0.168 | alvocidib 0.026 | Tubastatin A -0.105 | [6] 0.032 | defactinib -0.013 | [7] -0.034 | encorafenib 0.052 | [8] 0.108 | alisertib -0.032 | [9] 0.121 | gefitinib -0.065

Reprinted at random: two records from the list, in no set order.
LMAN2 (UniProt Q12907)
inactive: vemurafenib -0.017 | [1] -0.013 | barasertib 0.011 | [2] 0.053 | volasertib 0.002 | [3] -0.016 | [4] -0.169 | [5] 0.054 | saracatinib -0.036 | sotrastaurin 0.002 | alvocidib -0.02 | Tubastatin A 0.061 | [6] 0 | defactinib 0.015 | [7] 0.008 | encorafenib 0.028 | [8] -0.035 | alisertib 0.002 | [9] -0.003 | gefitinib 0.008

LDHB (UniProt P07195)
inactive: vemurafenib 0.007 | [1] -0.009 | barasertib -0.033 | [2] 0.024 | volasertib 0.038 | [3] -0.036 | [4] -0.007 | [5] 0.047 | saracatinib -0.006 | sotrastaurin 0.002 | alvocidib 0.021 | Tubastatin A 0.04 | [6] 0.002 | defactinib -0.027 | [7] 0.025 | encorafenib -0.05 | [8] -0.04 | alisertib 0.019 | [9] 0.015 | gefitinib -0.03

Continuation.

LMBRD1 (UniProt Q9NUN5)
inactive: vemurafenib 0.066 | [1] -0.022 | barasertib -0.035 | [2] 0.072 | volasertib 0.07 | [3] -0.019 | [4] 0.091 | [5] 0.085 | saracatinib 0.039 | sotrastaurin 0.094 | alvocidib -0.132 | Tubastatin A -0.024 | [6] 0.019 | defactinib 0.004 | [7] 0.012 | encorafenib 0.11 | [8] -0.017 | alisertib 0.009 | [9] 0.008 | gefitinib -0.035

LRRC8A (UniProt Q8IWT6)
inactive: vemurafenib 0.029 | [1] 0.003 | barasertib -0.017 | [2] 0.039 | volasertib -0.022 | [3] -0.003 | [4] 0.018 | [5] 0.021 | saracatinib -0.01 | sotrastaurin 0.001 | alvocidib -0.015 | Tubastatin A 0.005 | [6] 0.011 | defactinib -0.036 | [7] -0.058 | encorafenib 0.022 | [8] -0.007 | alisertib 0.042 | [9] 0.057 | gefitinib -0.044

LPIN3 isoform 2 (UniProt Q9BQK8)
inactive: vemurafenib 0.006 | [1] 0.006 | barasertib -0.05 | [2] -0.036 | volasertib 0.027 | [3] -0.079 | [4] -0.036 | [5] 0.017 | saracatinib -0.092 | sotrastaurin 0.013 | alvocidib 0.057 | Tubastatin A -0.015 | [6] 0.009 | defactinib -0.09 | [7] -0.046 | encorafenib 0.041 | [8] -0.022 | alisertib 0.006 | [9] 0.046 | gefitinib 0.091

LSM6 (UniProt P62312)
inactive: vemurafenib -0.036 | [1] -0.026 | barasertib -0.016 | [2] 0.014 | volasertib 0.043 | [3] -0.021 | [4] 0.017 | [5] 0.019 | saracatinib 0.023 | sotrastaurin -0.018 | alvocidib 0.045 | Tubastatin A 0.003 | [6] -0.008 | defactinib -0.009 | [7] 0.005 | encorafenib -0.02 | [8] -0.018 | alisertib 0.03 | [9] 0.003 | gefitinib -0.014

LRPPRC (UniProt P42704)
inactive: vemurafenib 0.032 | [1] 0.024 | barasertib 0.101 | [2] -0.141 | volasertib -0.072 | [3] 0.076 | [4] 0.033 | [5] -0.087 | saracatinib 0.045 | sotrastaurin 0.005 | alvocidib 0.076 | Tubastatin A -0.091 | [6] 0.011 | defactinib 0.037 | [7] -0.041 | encorafenib 0.005 | [8] 0.079 | alisertib 0.029 | [9] -0.006 | gefitinib -0.005

LCLAT1 (UniProt Q6UWP7)
inactive: vemurafenib -0.019 | [1] 0.017 | barasertib 0.042 | [2] 0.035 | volasertib -0.003 | [3] -0.041 | [4] -0.019 | [5] 0.043 | saracatinib 0.031 | sotrastaurin -0.01 | alvocidib -0.032 | Tubastatin A 0.026 | [6] -0.032 | defactinib 0.005 | [7] 0.049 | encorafenib 0.011 | [8] -0.035 | alisertib -0.012 | [9] 0.057 | gefitinib -0.003

LAS1L (UniProt Q9Y4W2)
inactive: vemurafenib -0.027 | [1] 0.007 | barasertib -0.003 | [2] -0.051 | volasertib -0.069 | [3] 0.009 | [4] -0.055 | [5] 0.099 | saracatinib -0.031 | sotrastaurin 0.049 | alvocidib -0.015 | Tubastatin A -0.127 | [6] -0.024 | defactinib -0.02 | [7] 0.016 | encorafenib -0.04 | [8] 0.06 | alisertib -0.011 | [9] 0.01 | gefitinib -0.013

LDHA isoform 3 (UniProt P00338)
inactive: vemurafenib 0.001 | [1] 0.02 | barasertib -0.023 | [2] 0.034 | volasertib 0.026 | [3] -0.007 | [4] 0.022 | [5] 0.031 | saracatinib -0.019 | sotrastaurin -0.029 | alvocidib 0.026 | Tubastatin A 0.043 | [6] -0.005 | defactinib -0.001 | [7] 0.013 | encorafenib -0.036 | [8] -0.019 | alisertib 0.01 | [9] -0.001 | gefitinib -0.005

LRCH4 (UniProt O75427)
inactive: vemurafenib 0.024 | [1] 0.05 | barasertib -0.064 | [2] 0.045 | volasertib -0.008 | [3] -0.082 | [4] 0.239 | [5] 0.059 | saracatinib 0.044 | sotrastaurin -0.009 | alvocidib -0.003 | Tubastatin A -0.091 | [6] -0.009 | defactinib 0 | [7] -0.01 | encorafenib -0.055 | [8] 0.253 | alisertib -0.163 | [9] 0.036 | gefitinib -0.035

LIMS1 isoform 3 (UniProt P48059)
inactive: vemurafenib -0.055 | [1] -0.006 | barasertib 0.014 | [2] 0.008 | volasertib 0.024 | [3] -0.002 | [4] -0.005 | [5] 0.045 | saracatinib 0.014 | sotrastaurin -0.162 | alvocidib -0.014 | Tubastatin A 0.034 | [6] 0.017 | defactinib 0.048 | [7] 0.02 | encorafenib 0.004 | [8] -0.118 | alisertib 0.011 | [9] -0.003 | gefitinib -0.097
